Results published in the supplement of paper PMC10849652.
The other results are listed elsewhere or left out.

Sequences of proteins named here, by UniProt entry; tags and fusion partners are left off. A change or cut given only in a name is not applied to a line headed by its entry.
UniProt Q96FQ7: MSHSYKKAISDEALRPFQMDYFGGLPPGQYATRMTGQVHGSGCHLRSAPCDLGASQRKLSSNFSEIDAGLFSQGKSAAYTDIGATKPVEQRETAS
UniProt Q6ZUX7: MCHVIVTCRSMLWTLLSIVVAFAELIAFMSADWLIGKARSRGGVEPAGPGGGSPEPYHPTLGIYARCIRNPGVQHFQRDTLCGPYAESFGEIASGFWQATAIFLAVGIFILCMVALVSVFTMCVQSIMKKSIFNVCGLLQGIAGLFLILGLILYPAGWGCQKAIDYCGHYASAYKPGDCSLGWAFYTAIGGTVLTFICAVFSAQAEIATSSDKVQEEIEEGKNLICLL
UniProt Q8NC56: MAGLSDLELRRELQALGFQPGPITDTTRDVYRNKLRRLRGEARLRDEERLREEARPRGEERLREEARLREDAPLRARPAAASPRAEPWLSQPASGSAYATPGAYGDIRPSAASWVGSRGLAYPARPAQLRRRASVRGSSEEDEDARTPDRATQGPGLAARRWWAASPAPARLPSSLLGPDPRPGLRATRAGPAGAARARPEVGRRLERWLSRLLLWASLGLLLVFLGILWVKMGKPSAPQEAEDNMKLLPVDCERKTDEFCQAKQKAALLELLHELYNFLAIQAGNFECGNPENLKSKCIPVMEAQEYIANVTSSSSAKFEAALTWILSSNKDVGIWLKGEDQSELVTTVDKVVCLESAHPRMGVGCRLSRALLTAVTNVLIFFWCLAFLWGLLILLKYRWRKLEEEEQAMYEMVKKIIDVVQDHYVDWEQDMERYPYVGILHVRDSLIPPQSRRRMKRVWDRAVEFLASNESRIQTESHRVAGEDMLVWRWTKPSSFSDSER
UniProt Q8WVP7: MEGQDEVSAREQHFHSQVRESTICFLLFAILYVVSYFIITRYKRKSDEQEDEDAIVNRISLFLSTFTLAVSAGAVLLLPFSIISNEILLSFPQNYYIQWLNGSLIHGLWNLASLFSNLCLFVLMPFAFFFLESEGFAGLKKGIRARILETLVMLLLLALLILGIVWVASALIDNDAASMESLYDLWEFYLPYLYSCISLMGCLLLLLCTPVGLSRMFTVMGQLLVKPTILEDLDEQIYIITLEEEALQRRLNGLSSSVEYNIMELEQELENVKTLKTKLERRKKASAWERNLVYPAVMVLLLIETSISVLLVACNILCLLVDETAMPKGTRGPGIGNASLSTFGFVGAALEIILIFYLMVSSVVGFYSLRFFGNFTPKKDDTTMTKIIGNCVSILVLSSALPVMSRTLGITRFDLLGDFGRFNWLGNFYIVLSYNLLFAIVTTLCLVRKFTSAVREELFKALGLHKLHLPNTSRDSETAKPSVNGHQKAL
UniProt Q92604: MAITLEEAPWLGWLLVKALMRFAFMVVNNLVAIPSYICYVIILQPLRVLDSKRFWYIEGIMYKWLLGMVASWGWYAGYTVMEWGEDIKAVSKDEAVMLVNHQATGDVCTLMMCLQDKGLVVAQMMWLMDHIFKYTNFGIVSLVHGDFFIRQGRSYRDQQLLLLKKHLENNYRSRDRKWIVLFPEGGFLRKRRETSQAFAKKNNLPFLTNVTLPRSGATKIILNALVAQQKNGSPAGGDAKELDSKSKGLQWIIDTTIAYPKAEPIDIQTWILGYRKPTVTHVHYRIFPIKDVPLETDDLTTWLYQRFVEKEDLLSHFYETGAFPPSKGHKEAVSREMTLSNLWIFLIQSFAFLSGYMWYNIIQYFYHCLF
UniProt Q86WA8: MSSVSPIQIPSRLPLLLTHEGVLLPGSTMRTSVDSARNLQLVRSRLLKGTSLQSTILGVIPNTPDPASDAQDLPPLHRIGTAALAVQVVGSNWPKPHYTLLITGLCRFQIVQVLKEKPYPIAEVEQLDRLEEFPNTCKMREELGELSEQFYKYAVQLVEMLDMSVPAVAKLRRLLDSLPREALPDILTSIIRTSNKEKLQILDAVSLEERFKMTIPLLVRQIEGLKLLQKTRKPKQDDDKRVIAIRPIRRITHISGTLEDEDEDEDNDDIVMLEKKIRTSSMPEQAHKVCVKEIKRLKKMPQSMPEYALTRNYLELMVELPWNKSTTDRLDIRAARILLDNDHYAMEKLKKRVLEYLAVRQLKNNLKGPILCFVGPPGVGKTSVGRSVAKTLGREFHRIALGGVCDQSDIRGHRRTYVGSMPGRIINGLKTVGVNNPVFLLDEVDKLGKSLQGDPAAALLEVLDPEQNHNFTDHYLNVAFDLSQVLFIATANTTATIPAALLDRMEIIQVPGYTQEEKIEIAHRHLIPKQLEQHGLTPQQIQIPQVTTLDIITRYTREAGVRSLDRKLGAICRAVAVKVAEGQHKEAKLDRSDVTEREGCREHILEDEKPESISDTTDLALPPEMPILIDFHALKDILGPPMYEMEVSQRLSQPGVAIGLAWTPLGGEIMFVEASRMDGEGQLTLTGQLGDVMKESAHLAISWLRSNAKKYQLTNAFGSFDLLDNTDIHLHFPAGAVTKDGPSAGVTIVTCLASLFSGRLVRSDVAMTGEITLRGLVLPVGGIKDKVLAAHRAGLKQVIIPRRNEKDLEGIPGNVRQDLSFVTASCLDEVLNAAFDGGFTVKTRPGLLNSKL
UniProt Q9H9Z2: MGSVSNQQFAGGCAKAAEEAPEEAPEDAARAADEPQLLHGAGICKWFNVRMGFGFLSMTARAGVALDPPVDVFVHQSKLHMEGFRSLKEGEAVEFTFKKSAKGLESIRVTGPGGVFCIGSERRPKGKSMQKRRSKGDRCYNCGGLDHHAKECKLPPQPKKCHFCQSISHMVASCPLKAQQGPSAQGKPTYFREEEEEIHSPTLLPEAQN
UniProt Q6NSJ5: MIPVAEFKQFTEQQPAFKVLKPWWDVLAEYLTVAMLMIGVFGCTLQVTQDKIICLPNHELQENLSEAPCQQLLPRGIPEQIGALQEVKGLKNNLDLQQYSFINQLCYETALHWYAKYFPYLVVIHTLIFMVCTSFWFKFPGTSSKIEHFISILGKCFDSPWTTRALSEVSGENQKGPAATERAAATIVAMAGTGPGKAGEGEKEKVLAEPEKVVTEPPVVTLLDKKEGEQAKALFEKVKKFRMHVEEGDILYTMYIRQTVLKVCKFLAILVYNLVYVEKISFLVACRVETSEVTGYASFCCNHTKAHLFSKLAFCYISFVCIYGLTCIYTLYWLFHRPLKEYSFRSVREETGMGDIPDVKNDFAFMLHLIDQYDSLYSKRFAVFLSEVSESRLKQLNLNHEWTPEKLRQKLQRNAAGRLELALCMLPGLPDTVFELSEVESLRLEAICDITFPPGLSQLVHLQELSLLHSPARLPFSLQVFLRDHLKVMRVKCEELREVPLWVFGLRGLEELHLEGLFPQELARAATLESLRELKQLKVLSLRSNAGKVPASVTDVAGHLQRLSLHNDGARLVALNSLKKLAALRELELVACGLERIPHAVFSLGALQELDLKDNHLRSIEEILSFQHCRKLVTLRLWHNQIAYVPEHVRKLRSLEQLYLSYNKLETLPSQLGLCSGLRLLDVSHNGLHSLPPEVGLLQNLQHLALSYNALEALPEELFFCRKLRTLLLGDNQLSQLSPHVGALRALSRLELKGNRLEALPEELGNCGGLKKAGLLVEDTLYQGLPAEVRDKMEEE
UniProt Q9Y2L9: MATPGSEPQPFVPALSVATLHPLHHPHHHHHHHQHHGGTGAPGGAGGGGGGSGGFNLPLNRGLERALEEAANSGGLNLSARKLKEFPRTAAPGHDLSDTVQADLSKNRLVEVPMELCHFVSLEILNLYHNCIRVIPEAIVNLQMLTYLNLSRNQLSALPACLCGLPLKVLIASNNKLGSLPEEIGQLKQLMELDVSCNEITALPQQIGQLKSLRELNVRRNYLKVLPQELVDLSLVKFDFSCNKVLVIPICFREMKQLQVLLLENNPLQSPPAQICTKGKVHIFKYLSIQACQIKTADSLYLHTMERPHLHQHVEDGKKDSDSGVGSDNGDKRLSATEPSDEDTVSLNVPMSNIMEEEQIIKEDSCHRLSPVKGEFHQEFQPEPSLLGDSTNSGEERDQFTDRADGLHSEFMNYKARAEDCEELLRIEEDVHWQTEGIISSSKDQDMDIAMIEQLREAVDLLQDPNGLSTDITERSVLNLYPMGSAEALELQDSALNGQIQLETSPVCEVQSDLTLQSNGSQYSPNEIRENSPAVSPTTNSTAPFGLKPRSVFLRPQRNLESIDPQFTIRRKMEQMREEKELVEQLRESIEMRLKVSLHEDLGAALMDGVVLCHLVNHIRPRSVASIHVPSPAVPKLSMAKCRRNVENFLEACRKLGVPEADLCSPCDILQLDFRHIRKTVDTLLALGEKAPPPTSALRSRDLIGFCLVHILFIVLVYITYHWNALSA
UniProt Q8TBB1: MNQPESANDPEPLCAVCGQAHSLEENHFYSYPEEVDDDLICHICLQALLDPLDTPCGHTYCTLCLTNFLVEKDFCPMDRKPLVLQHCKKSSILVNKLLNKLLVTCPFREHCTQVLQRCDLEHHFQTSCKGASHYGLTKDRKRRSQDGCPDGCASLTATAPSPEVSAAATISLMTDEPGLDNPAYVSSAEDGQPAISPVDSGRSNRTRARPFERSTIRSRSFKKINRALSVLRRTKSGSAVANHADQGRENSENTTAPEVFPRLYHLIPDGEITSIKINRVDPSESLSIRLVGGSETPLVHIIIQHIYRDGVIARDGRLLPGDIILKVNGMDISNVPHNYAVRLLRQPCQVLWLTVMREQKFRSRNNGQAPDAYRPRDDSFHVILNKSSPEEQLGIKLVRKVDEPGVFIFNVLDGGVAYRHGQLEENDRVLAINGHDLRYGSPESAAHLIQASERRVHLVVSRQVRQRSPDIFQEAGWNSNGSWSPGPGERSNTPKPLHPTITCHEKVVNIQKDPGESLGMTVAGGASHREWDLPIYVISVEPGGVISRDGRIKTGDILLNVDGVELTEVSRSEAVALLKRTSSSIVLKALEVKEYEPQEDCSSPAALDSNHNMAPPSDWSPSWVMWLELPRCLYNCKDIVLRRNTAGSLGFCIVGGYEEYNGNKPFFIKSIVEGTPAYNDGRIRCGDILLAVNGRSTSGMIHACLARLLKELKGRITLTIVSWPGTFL
UniProt Q52LA3: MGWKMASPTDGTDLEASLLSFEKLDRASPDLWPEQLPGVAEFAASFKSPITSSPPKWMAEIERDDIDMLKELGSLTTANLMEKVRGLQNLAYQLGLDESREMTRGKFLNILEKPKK
UniProt Q8N386: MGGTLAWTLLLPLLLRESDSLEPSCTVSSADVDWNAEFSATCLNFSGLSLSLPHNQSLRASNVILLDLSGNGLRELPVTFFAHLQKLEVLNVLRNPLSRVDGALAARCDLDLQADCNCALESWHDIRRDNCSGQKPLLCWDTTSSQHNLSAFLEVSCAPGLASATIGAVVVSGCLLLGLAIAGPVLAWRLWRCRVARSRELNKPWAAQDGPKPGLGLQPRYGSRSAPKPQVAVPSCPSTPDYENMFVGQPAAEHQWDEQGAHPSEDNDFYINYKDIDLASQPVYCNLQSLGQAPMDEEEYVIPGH
UniProt Q7L5N7: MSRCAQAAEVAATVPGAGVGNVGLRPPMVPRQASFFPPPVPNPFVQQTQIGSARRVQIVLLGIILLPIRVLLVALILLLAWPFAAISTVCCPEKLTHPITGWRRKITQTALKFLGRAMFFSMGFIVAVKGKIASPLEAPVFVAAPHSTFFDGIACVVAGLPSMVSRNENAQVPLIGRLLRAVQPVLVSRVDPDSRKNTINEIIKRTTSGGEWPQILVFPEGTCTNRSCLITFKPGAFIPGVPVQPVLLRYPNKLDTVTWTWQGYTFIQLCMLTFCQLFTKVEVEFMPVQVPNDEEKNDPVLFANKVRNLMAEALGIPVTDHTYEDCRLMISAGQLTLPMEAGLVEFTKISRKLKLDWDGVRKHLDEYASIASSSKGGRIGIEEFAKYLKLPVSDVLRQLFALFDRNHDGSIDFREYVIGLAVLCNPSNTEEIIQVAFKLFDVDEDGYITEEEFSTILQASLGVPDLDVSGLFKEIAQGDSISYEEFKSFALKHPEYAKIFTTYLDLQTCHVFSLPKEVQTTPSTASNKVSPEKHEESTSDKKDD
UniProt P02750: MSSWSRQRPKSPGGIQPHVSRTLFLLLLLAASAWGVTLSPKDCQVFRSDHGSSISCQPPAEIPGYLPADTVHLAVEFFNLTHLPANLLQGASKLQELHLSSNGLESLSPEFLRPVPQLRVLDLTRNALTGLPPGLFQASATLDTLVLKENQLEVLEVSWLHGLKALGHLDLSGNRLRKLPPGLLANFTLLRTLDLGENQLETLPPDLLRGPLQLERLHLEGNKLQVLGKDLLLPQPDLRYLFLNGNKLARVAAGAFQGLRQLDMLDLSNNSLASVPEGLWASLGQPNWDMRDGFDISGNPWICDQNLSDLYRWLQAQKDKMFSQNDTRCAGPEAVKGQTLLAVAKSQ

Assays:
Experiment in all cases: log2 fold change, soluble protein after heating vs DMSO (PISA); higher = thermal stabilisation; K562 lysate, 10 uM; active = over 0.2 and 3.5 SD of the protein, either way, in both replicates (recomputed)
[1] = compound: CC1=C(C=C(C=C1)NC(=O)C2=CC(=CC=C2)C(C)(C)C#N)NC3=CC4=C(C=C3)N=CN(C4=O)C
Summary of the method: (§1)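 K562 pellets were dounce-homogenised in PBS pH 7.4 with 1 mM MgCl2, and the crude extract at 1 mg/mL protein was treated with 10 μM compound for 30 min. Aliquots were heated for 3 min across 48°C-58°C, pooled, and brought to 0.5% NP-40 at 4°C; soluble protein was the supernatant after 21,000xg for 90 min. Soluble protein was quantified by TMTpro 16plex LC-MS/MS with channel sums equalised, and reported as log2 fold change in thermal stability against DMSO controls, with values from duplicates.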

[2] = compound: C1=CC2=NC=CN=C2C=C1/C=C/3\C(=O)NC(=O)S3
Summary of the method: as §1

ibrutinib = compound: C=CC(=O)N1CCC[C@@H](n2nc(-c3ccc(Oc4ccccc4)cc3)c3c(N)ncnc32)C1 [ibrutinib]
Summary of the method: as §1

erlotinib = compound: C#Cc1cccc(Nc2ncnc3cc(OCCOC)c(OCCOC)cc23)c1 [erlotinib]
Summary of the method: as §1

[3] = compound: C1=CC(=CC=C1C2=NC3=C(N2)C=C(C=C3)C(=O)N)OC4=CC=C(C=C4)Cl
Summary of the method: as §1

[4] = compound: C1=CC=C(C=C1)C2=NC(=C(N2)C3=CC=NC=C3)C4=CC(=C(C=C4)Cl)O
Summary of the method: as §1

[5] = compound: C1CCN(C1)C(=O)NC2=CC=CC(=C2)NC3=NC=C(C(=N3)NCCC4=CN=CN4)Br
Summary of the method: as §1

[6] = compound: C1CN(CCC1(CC2=CC=C(C=C2)Cl)N)C3=NC=NC4=C3C=CN4
Summary of the method: as §1

IRAK-1-4 Inhibitor I = compound: C1COCCN1CCN2C3=CC=CC=C3N=C2NC(=O)C4=CC(=CC=C4)[N+](=O)[O-] [IRAK-1-4 Inhibitor I]
Summary of the method: as §1

[7] = compound: CC(=O)c1cnc2ccc(-c3cc(Cl)c(O)c(Cl)c3)nc2c1N[C@H]1CC[C@H](CN(C)C)CC1
Summary of the method: as §1

ralimetinib = compound: CC(C)(C)Cn1c(N)nc2ccc(-c3[nH]c(C(C)(C)C)nc3-c3ccc(F)cc3)nc21 [ralimetinib]
Summary of the method: as §1

[8] = compound: CC(C)(O)CC(=O)NCCn1ccc2ncnc(Nc3ccc(Oc4cccc(C(F)(F)F)c4)c(Cl)c3)c21
Summary of the method: as §1

[9] = compound: CC(C)C1=C2N=C(C=C(N2N=C1)NCC3=CC=CC=C3)NCCCCCCN
Summary of the method: as §1

[10] = compound: CC1=C(C2=C(C=C1)C(=O)C3=CC=CC=C3N2CCCN)C
Summary of the method: as §1

[11] = compound: CC1=C(C=C(C=C1)NC(=O)C2=CC(=CC=C2)N(C)C)NC(=O)C3=CC=C(C=C3)O
Summary of the method: as §1

[12] = compound: CC1=CC=C(C=C1)SC2=C3C=C(SC3=CN=C2)C(=O)N
Summary of the method: as §1

[13] = compound: CC1=C(C(CC(=O)N1)C2=CC=C(C=C2)C(F)(F)F)C(=O)NC3=C(C=C4C(=C3)C=NN4)F
Summary of the method: as §1

[14] = compound: C/C(=N\NC(=O)C1=CC(=CC=C1)S(=O)(=O)N2CCOCC2)/C3=C(C=CC(=C3)Cl)O
Summary of the method: as §1

[15] = compound: C1=CC2=C(C=CC(=C2)/C=C\3/C(=O)NC(=NCC4=CC=CS4)S3)N=C1
Summary of the method: as §1

[16] = compound: C1=CC=C2C(=C1)C3=NNC4=CC=CC(=C43)C2=O
Summary of the method: as §1

Measured: log2 fold change

LINC00526 (UniProt Q96FQ7)
inactive: [1] -0.099

LHFPL2 (UniProt Q6ZUX7)
inactive: [2] -0.103 | ibrutinib 0.185 | [1] 0.074

LEMD2 (UniProt Q8NC56)
inactive: erlotinib 0.034 | [3] -0.083 | [4] -0.031 | [5] -0.118 | [6] -0.042 | IRAK-1-4 Inhibitor I -0.018 | [7] 0 | ralimetinib 0.048 | [8] -0.011 | [9] 0.08 | [10] -0.003 | [1] 0.047 | [11] -0.031 | [12] -0.136

LONRF2 (UniProt Q1L5Z9)
inactive: erlotinib 0.098 | [3] 0.058 | [5] 0.069 | [6] 0.214 | [9] 0 | [13] 0.05 | [10] 0.029 | [1] 0.056

LSR isoform 3 (UniProt Q86X29)
inactive: [1] -0.04

LMBR1 isoform 3 (UniProt Q8WVP7)
inactive: [2] -0.1 | ibrutinib -0.053 | [1] -0.076

Reprinted at random: 2 records from the list
LHFPL2 (UniProt Q6ZUX7)
inactive: [2] -0.103 | ibrutinib 0.185 | [1] 0.074

LSR isoform 3 (UniProt Q86X29)
inactive: [1] -0.04

The listing continues.

LDHA (UniProt F5GZQ4)
inactive: [2] -0.259 | [4] -0.055 | IRAK-1-4 Inhibitor I -0.099 | ibrutinib 0.157 | [7] -0.063 | ralimetinib 0.102 | [8] 0.012 | [13] -0.043 | [11] 0.057 | [12] 0.053

LPGAT1 (UniProt Q92604)
inactive: erlotinib 0.087 | [3] 0.032 | [4] -0.036 | [5] -0.148 | [6] 0.097 | IRAK-1-4 Inhibitor I -0.147 | ralimetinib 0.089 | [8] 0.068 | [9] -0.15 | [13] 0.051 | [10] 0.128 | [11] 0.161

LONP2 (UniProt Q86WA8)
inactive: [14] 0.57 | [15] 0.207 | [16] -0.328

LIN28A (UniProt Q9H9Z2)
inactive: erlotinib -0.082 | [3] -0.046 | [2] 0.019 | ibrutinib 0.101 | [9] 0.129 | [13] -0.045

LRRC8E (UniProt Q6NSJ5)
inactive: [14] -0.069 | [15] -0.098 | [4] -0.003 | [16] -0.08 | [5] -0.039 | [6] -0.075 | IRAK-1-4 Inhibitor I -0.034 | ralimetinib 0 | [8] 0.005 | [1] -0.005 | [11] 0.099

LRCH1 isoform 3 (UniProt Q9Y2L9)
inactive: [2] -0.157 | [4] -0.303 | IRAK-1-4 Inhibitor I 0.24 | ibrutinib 0.154 | [7] -0.014 | ralimetinib 0.198 | [8] -0.224 | [13] 0.009 | [10] 0.048 | [11] -0.049 | [12] 0.111

LNX1 (UniProt Q8TBB1)
inactive: [10] 0.106 | [1] -0.022

LIN52 (UniProt Q52LA3)
inactive: erlotinib -0.149 | [3] 0.243 | [4] 0.031 | IRAK-1-4 Inhibitor I 0.001 | [7] 0.007 | ralimetinib 0.031 | [8] -0.021 | [9] -0.036 | [10] 0.173 | [1] 0.058 | [11] -0.116 | [12] -0.033

LDHD (UniProt Q86WU2)
inactive: [2] -0.193 | [5] -0.062 | [6] 0.049 | ibrutinib 0.011

LDHA isoform 4 (UniProt P00338)
inactive: [7] -0.026 | [12] -0.089

LRPPRC (UniProt H7C3W8)
inactive: [14] -0.13 | [15] -0.053 | [16] -0.3

LRRC25 (UniProt Q8N386)
inactive: [5] -0.038 | [6] -0.068 | [7] -0.002 | [1] 0.06 | [12] 0.12

LPCAT2 (UniProt Q7L5N7)
inactive: [14] 0.394 | [15] 0.09 | [2] -0.019 | [16] 0.07 | [5] -0.002 | [6] 0.088 | ibrutinib 0.139 | [13] 0.136 | [10] 0.148 | [1] 0.002

LRG1 (UniProt P02750)
inactive: erlotinib -0.019 | [3] -0.02 | [2] -0.016 | [5] -0.077 | [6] 0.066 | ibrutinib -0.045 | [9] 0.042 | [1] 0.078

LRP1 (UniProt Q07954)
inactive: [14] 0.266 | [15] -0.092 | [16] -0.211 | [5] -0.196 | [6] -0.055 | [7] -0.017 | [1] 0.378 | [12] -0.049
